Measurements reported in BindingDB's records for doi:10.1021/cb500908d (Technical University of Dortmund, 2015).

Target: T1, Serine/threonine-protein kinase TBK1 (Homo sapiens, UniProt Q9UHD2)
T1 sequence (Q9UHD2 whole entry): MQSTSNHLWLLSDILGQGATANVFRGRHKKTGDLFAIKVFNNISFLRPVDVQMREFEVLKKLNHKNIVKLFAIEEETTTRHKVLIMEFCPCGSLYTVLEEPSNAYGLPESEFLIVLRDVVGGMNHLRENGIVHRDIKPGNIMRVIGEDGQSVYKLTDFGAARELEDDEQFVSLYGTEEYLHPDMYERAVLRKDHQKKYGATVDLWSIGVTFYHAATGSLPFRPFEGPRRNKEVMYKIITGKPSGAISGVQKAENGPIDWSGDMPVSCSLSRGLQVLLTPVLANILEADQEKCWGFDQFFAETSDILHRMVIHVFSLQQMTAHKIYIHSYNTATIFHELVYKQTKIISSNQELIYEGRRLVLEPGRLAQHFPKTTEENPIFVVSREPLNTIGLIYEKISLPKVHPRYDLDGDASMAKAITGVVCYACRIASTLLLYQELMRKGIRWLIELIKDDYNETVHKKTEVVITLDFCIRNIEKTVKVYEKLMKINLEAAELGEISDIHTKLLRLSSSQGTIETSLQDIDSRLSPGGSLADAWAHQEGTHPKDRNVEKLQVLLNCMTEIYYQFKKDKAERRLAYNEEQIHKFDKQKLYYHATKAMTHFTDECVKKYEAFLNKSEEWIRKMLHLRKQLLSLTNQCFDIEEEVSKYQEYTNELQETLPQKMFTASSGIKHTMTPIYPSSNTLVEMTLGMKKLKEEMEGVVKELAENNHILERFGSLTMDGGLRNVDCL
Experiment: IC50 determinations for TBK1 were performed with the KinEASE-STK assay from Cisbio according to the manufacturer's instructions. […] After completion of the reaction, an antiphosphoserine/-threonine antibody labeled with europium cryptate and streptavidin labeled with the fluorophore XL665 were added. FRET between europium cryptate and XL665 was measured to quantify the phosphorylation of thesubstrate peptide. ATP concentrations were adjusted to 30 μM while a substrate concentration of 1 μM was used. Kinase and inhibitor were preincubated for 30 min before the reaction was started by addition of ATP and substrate peptide.

IC50: 532 nM
SMILES: O=C1NC(=O)C(c2cccc([N+](=O)[O-])c2)=C1Nc1cc(Cl)c(O)c(Cl)c1 [GSK screening, 35]
